Data on two molecules can be found in PMC12713080.

Test [1] deals with T1, HA‐TAK1 (human), O43318.
T1 chain: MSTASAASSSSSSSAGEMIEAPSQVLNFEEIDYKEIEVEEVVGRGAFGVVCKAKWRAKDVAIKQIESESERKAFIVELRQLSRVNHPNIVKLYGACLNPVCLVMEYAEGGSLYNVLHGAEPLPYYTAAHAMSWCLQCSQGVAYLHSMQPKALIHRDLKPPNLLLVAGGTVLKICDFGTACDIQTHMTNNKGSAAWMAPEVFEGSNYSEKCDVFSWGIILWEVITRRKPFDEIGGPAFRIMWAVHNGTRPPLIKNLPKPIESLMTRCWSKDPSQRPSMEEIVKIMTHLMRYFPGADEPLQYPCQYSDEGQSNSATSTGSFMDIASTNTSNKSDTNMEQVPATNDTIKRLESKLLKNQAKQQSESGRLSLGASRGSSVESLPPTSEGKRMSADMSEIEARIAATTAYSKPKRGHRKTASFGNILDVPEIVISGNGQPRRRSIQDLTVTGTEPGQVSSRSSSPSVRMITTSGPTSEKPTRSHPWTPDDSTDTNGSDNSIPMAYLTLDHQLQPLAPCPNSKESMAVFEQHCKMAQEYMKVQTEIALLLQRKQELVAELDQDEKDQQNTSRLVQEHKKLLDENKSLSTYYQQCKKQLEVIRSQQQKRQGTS
The test is described as follows: co-IP; in cells, with copper (Figure S5P; legend not shown). Particulars: remark: other sources report otherwise.

Test [2] addresses T1, HA‐TAK1 (human), O43318. The test is described as follows: co-IP; HEK293T cells cotransfected with the indicated constructs; IP with anti-HA beads, immunoblot (Figure 3N; Figures S5Q,R). The settings on record: remark: other sources report otherwise.
For test [3], the target named is T2, Human TAK1 Protein (HY‐P703591) (human), O43318.
T2 chain: T1 chain
The test is described as follows: co-IP; purified Flag-TRAF2 and bought TAK1 incubated with anti-TAK1 antibody and protein A/G agarose with or without CuSO4 (50 µM) for 10 h at 4 °C; washed 4 times with NETN buffer; both purified. The settings on record: remark: other sources report otherwise.

Test [4] addresses T3, transforming growth factor β‐activated kinase 1 (TAK1), endogenous (human (endogenous in MDA-MB-231)) (UniProt O43318).
T3 sequence: T1 chain
The test is described as follows: co-IP; as a1, cells treated with the copper chelator TTM (50 µM).

No constants are given. Whether binding was seen depends on the method and setting. For some of these results: Binding seen in cells or lysates may run through a third protein. Some entries that bind do so weakly or less than the wild type. For some of these results: Sequences can lack the tags named with a protein.

B1: Flag‐TRAF2, Q12933 1-501 (protein)
chain: MAAASVTPPGSLELLQPGFSKTLLGTKLEAKYLCSACRNVLRRPFQAQCGHRYCSFCLASILSSGPQNCAACVHEGIYEEGISILESSSAFPDNAARREVESLPAVCPSDGCTWKGTLKEYESCHEGRCPLMLTECPACKGLVRLGEKERHLEHECPERSLSCRHCRAPCCGADVKAHHEVCPKFPLTCDGCGKKKIPREKFQDHVKTCGKCRVPCRFHAIGCLETVEGEKQQEHEVQWLREHLAMLLSSVLEAKPLLGDQSHAGSELLQRCESLEKKTATFENIVCVLNREVERVAMTAEACSRQHRLDQDKIEALSSKVQQLERSIGLKDLAMADLEQKVLEMEASTYDGVFIWKISDFARKRQEAVAGRIPAIFSPAFYTSRYGYKMCLRIYLNGDGTGRGTHLSLFFVVMKGPNDALLRWPFNQKVTLMLLDQNNREHVIDAFRPDVTSSSFQRPVNDMNIASGCPLFCPVSKMEAKNSYVRDDAIFIKAIVDLTGL
Consider B1, for which the binding entry in the test with HA‐TAK1 (human), O43318 [1] is “binds”; with HA‐TAK1 (human), O43318 [2], “binds”; in test [3], “binds”.

B2: IκB kinase β (IKKβ), endogenous (protein, UniProt O14920 1-756)
chain: MSWSPSLTTQTCGAWEMKERLGTGGFGNVIRWHNQETGEQIAIKQCRQELSPRNRERWCLEIQIMRRLTHPNVVAARDVPEGMQNLAPNDLPLLAMEYCQGGDLRKYLNQFENCCGLREGAILTLLSDIASALRYLHENRIIHRDLKPENIVLQQGEQRLIHKIIDLGYAKELDQGSLCTSFVGTLQYLAPELLEQQKYTVTVDYWSFGTLAFECITGFRPFLPNWQPVQWHSKVRQKSEVDIVVSEDLNGTVKFSSSLPYPNNLNSVLAERLEKWLQLMLMWHPRQRGTDPTYGPNGCFKALDDILNLKLVHILNMVTGTIHTYPVTEDESLQSLKARIQQDTGIPEEDQELLQEAGLALIPDKPATQCISDGKLNEGHTLDMDLVFLFDNSKITYETQISPRPQPESVSCILQEPKRNLAFFQLRKVWGQVWHSIQTLKEDCNRLQQGQRAAMMNLLRNNSCLSKMKNSMASMSQQLKAKLDFFKTSIQIDLEKYSEQTEFGITSDKLLLAWREMEQAVELCGRENEVKLLVERMMALQTDIVDLQRSPMGRKQGGTLDDLEEQARELYRRLREKPRDQRTEGDSQEMVRLLLQAIQSFEKKVRVIYTQLSKTVVCKQKALELLPKVEEVVSLMNEDEKTVVRLQEKRQKELWNLLKIACSKVRGPVSGSPDSMNASRLSQPGQLMSQPSTASNSLPEPAKKSEELVAEAHNLCTLLENAIQDTVREQDQSFTALDWSWLQTEEEEHSCLEQAS
Turning to B2, in test [4], the binding result is “no binding (condition: cells treated with TTM (50 µM))”.
